Construct, isoform or probe ends are uncertain for at least one entry. For some of these results: A negative result means that nothing was seen under these conditions. For some of these results: A weaker result is weaker than the reference pair of the same experiment. For some of these results: Results from cells or extracts need not show a direct contact.
Legend:
p53 wild type [1] = target: p53 wild type (UniProt P04637); assay: competition with a labelled probe; details: KD N.A., purified recombinant protein
p53 wild type [2] = target: p53 wild type (UniProt P04637); assay: binding assay; details: purified recombinant protein; for Kd: KD listed in table, measurement method and source not stated
[3] = target: p53 wild type (H1299 EI cell lysate, PonA induced) (UniProt P04637); assay: binding assay; details: DLS in cell lysate; p53-null EI lysate gives negligible shift; larger with ActD, Dox, etoposide; protein in a lysate after overexpression; label: gold nanoparticle
[4] = target: human serum albumin (Homo sapiens) (UniProt P02768); assay: binding assay; details: DLS, negligible binding; purified native protein; label: gold nanoparticle
[5] = target: bovine serum albumin (Bos taurus) (UniProt P02769); assay: binding assay; details: purified native protein, label: gold nanoparticle
[6] = target: estrogen receptor alpha (ERα) (UniProt P03372); assay: binding assay; details: DLS complex peak similar to ERβ; purified recombinant protein; label: gold nanoparticle
[7] = target: estrogen receptor beta (ERβ) (UniProt Q92731); assay: binding assay; details: DLS complex peak at 200-300 nm, 10 nM ERβ, within 5 min; also with trimer probes; purified recombinant protein; label: gold nanoparticle

Protein sequences, listed by entry. Tags and fused reporters are not part of them.
UniProt Q92731, whole entry: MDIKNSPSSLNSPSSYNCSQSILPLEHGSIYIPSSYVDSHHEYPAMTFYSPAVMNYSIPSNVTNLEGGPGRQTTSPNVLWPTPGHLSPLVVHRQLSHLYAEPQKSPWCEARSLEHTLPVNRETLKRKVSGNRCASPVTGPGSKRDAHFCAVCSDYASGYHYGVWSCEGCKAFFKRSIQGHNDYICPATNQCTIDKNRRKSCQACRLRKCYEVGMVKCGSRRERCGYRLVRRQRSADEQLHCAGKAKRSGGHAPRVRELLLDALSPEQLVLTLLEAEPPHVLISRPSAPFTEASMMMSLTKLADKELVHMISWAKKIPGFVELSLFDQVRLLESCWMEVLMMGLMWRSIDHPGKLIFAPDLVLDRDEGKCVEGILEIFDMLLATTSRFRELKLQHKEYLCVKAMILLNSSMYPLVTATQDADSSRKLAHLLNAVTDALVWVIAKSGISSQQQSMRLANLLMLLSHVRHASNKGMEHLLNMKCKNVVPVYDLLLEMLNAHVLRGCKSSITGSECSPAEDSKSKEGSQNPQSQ

Sequence: ACCTGGGGAATTTCCGGGAATTTCCGCTGA (double strand) [ConAmut4]
- binding result (p53 wild type [1]; excess free DNA vs PUMA-AuNP, DLS, order ConA>GADD45>Bax>ConAmut4>WRNC>Scrambled, variant of ConA): binds more weakly

Sequence: ATCATGAAAGGTGGATTTAGGTGGAAGCTC (double strand) [WRNC]
- binding result (p53 wild type [1]; negative control, rank 5 of 6, DLS competition): binds more weakly

Sequence: ATCATGAACATGTCTAAGCATGCTGAGCTC (double strand) [GADD45]
- Kd (p53 wild type [2]): 7.7 nM

Sequence: GGACAAGTCAGGACTTGCAG [PUMA response element (PUMA-AuNP dumbbell linker)]
- binding result [3]: binds
- binding result [4]: no binding
- binding result (p53 wild type [2]; DLS size shift, linear 0-12 pM p53, plateau about 15 min, about 120 nm size increase at about 6 pM, label: gold nanoparticle): binds
- binding result ([5]; DLS, negligible binding): no binding

Sequence: GGTCACTGTGACC [ERE dumbbell probe (seq A/seq B/100-mer linker)]
- binding result [6]: binds
- binding result [7]: binds
- binding result ([5]; DLS size unchanged, no complex peak): no binding

Sequence: GTTAGAGATGCGAGAGTTCAGTAAGCGGGGCAGA (double strand) [Scrambled]
- binding result (p53 wild type [1]; negative control, lowest rank of 6, DLS competition, variant of ConA): no binding

Sequence: GTTAGAGGGGCATGTCCGGGCATGTCCGGGCAGA (double strand) [ConA]
- Kd (p53 wild type [2]): 3 nM

Sequence: TCATTCACAAGTTAGAGACAAGCCTAGCTC (double strand) [Bax a]
- Kd (p53 wild type [2]): 73 nM

Reference: patent US20180172678
